# Assay results as given in PubChem BioAssay AID2685 (National Center for Advancing Translational Sciences (NCATS), 2010).
# Among all 320,000 compounds or so, about 2,100 (0.66%) were called active. The shares of active, inactive and inconclusive entries below differ from those in the screen. The call rests on the fitted dose curve; in most records, active means well fitted inhibition curve with a large enough effect in the signal ratio, with a control signal flat (not every such curve was filed as active); inconclusive means small, poorly fitted or top-dose-only effect, or effect the other way, or a change in a side signal; inactive means flat fitted curve, though single readings scatter; the % refers to the signal ratio. Potencies beside an inconclusive call are fits to weak or partial responses and may not hold up.
# Assay: qHTS Assay for Lipid Storage Modulators in Drosophila S3 Cells
# Settings: BODIPY lipid droplet fluorescence, 18-24 h, cells fed with added oleic acid; lipid storage change, negative = inhibition: at 46.1 µM (top of the series) unless noted
# How it was run: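 Laser-scanning cytometry quantifies lipid droplet accumulation (500–530 nm total intensity; droplet/cell object ratio) in oleic acid-fed (400 uM added) Drosophila S3 cells treated with a concentration series. 20 uM Triacsin C defined 100% inhibition.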
# On the % scale 0 is the no-effect control and ±100 the full control effect; potency means the concentration at half of the fitted maximal effect.
SMILES,"lipid storage change, negative = inhibition",Potency,outcome
COc1ccc(COCC(O)CN(Cc2ccccc2)C(C)C)cc1OC (stereo not drawn),inconclusive: -11.3%,–,–
O=c1c2ccccc2nc(SCCN2CCOCC2)n1CCc1ccccc1,inconclusive: 10.3%,–,–
CCC1CCCCN1C(=O)CSC1=NN2CCCC(=O)N=C2S1 (stereo not drawn),inconclusive: 0.116%,–,–
Cc1ccc(-c2cc(N)n(-c3ccc(F)cc3)n2)cc1,inconclusive: 23.8%,–,–
CC1(C)CC(NS(=O)(=O)c2ccc(S(=O)(=O)N3CCOCC3)cc2)CCO1 (stereo not drawn),–,"inconclusive: 0.0164 µM [falling, full curve]",–
CN(C)C(=S)SCC(=O)NCc1ccc(F)cc1,–,"inconclusive: 2.31 µM [falling, partial curve, poor fit]",–
C(=N\N=C\c1cccnc1)/c1cccnc1,–,"inconclusive: 6.51 µM [rising, single point]",–
Cc1nc(C)n(CC(O)COc2ccc3ccccc3c2)n1 (stereo not drawn),inconclusive: 5.37%,–,–
CC1(C)CC(N2CCN(Cc3ccccc3)CC2)=CC(=[N+]2CCCCC2)C1,–,"inconclusive: 32.6 µM [falling, single point]",–
c1ccc(-c2ccc(OCCN3CCOCC3)cc2)cc1,–,"inconclusive: 6.51 µM [activator, full curve, poor fit]",–
CCc1ccc(NC(=O)C(=S)NC2CCCCC2)cc1,inactive: 0.149%,–,–
O=S(=O)(Nc1nc2ccccc2nc1Nc1ccc2c(c1)OCCO2)c1cccs1,inconclusive: -36.6%,–,–
CCN1C(=O)C2C(C1=O)N1C(c3cccs3)C3C(=O)N(CC)C(=O)C3N1C2c1cccs1 (stereo not drawn),inconclusive: 44%,–,–
Cc1cccc(C(=O)Nc2nc(C)c(C(=O)Nc3ccc4c(c3)CCC4)s2)c1,inconclusive: -64.6%,–,–
COc1cccc(C(=O)NCC2CCCN2S(=O)(=O)c2cccs2)c1 (stereo not drawn),inconclusive,–,–
CC(C)CCN1CCN=C1N(C)C,inconclusive: -14%,–,–
Cc1onc(-c2ccccc2)c1-c1nnc(COC(=O)c2ccc(O)cc2)o1,–,"inconclusive: 29.1 µM [cytotoxic, single point]",–
CCn1c(C(O)c2ccc3c(c2)OCO3)nc2ccccc21 (stereo not drawn),–,"inconclusive: 6.51 µM [falling, single point]",–
O=C(Nc1ccc(N2CCN(Cc3ccccc3F)CC2)cc1)c1ccc([N+](=O)[O-])o1,–,"inconclusive: 11.6 µM [falling, partial curve]",–
C=CCN1C(=O)C(Cc2ccccc2Cl)SC1=Nc1ccc(C(=O)O)cc1 (stereo not drawn),–,"inconclusive: 4.61 µM [falling, single point]",–
O=C(COC(=O)/C=C/c1ccc(F)cc1)NCc1ccco1,inconclusive: -1.62%,–,–
CCOc1ccccc1N(CC(=O)NC1CCCCC1)S(C)(=O)=O,inconclusive: 48.5%,–,–
Cc1[nH][nH]c(=O)c1C(c1ccc(-c2ccc(Cl)cc2Cl)o1)c1c(C)[nH][nH]c1=O,inconclusive: 2.46%,–,–
CCCCNC(=O)C1CCCNC1=O (stereo not drawn),inconclusive: -37.7%,–,–
Cc1ccc(-n2ncc3c(N4CCCC(C)C4)ncnc32)c(C)c1 (stereo not drawn),inconclusive: 7.12%,–,–
Cc1cc(=O)oc2c3c(cc(OCC(=O)NCC(=O)O)c12)OC(C)(C)CC3,inactive: 7.78%,–,–

SMILES,"lipid storage change, negative = inhibition",Potency,outcome
Cc1ccc([N+](=O)[O-])c2c1C(N1CC(C)OC(C)C1)C(C)(C)O2 (stereo not drawn),inconclusive: -8.26%,–,–
O=C(Nc1ccc(Cl)cc1)N1CCSCC1,inconclusive: -16.1%,–,–
O=C(COc1ccc2c(-c3ccccc3)cc(=O)oc2c1)Nc1ccc(CN2CCOCC2)cc1,–,"inconclusive: 6.51 µM [activator, single point]",–
Cc1ccc(C(=O)C2=C(O)C(=O)N(Cc3cccnc3)C2c2ccc(Br)cc2)o1 (stereo not drawn),inactive: 22%,–,–
Cc1cccnc1NC(=O)Nc1ccc(Cl)cc1,inconclusive: 9.61%,–,–
CC(=O)/C(=N\Nc1ccccc1)Oc1ccc([N+](=O)[O-])cc1,–,"inconclusive: 29.1 µM [falling, single point]",–
CCCn1c(/C=N/Nc2nc3ccccc3[nH]2)nc2ccccc21,–,active: 13 µM,–
COc1ccc(Cc2nnc(NS(=O)(=O)c3ccc(Cl)cc3)s2)cc1OC,inconclusive: 19.9%,–,–
O=C(COC(=O)c1cccc2ccccc12)Nc1cccnc1Cl,inconclusive: 57%,–,–
COc1ccccc1OCC(=O)Nc1nonc1NC(=O)COc1ccccc1OC,inconclusive: -5.96%,–,–
CCCCc1cc(=O)oc2cc(OCC(=O)NC3CCN(Cc4ccccc4)CC3)ccc12,inconclusive: -31.9%,–,–
Cc1ccc(OCC(=O)NC(C)c2ccccc2)cc1C (stereo not drawn),inconclusive: 3.76%,–,–
C/C(=N\Nc1ccc2nncn2n1)c1ccccn1,inconclusive: -22.1%,–,–
O=c1cc(-c2ccccc2Cl)oc2c([N+](=O)[O-])c(O)cc(O)c12,inconclusive: 28.2%,–,–
Cc1ccc(S(=O)(=O)N2CCN(C(=O)CC(C)n3nc(C)c(Cl)c3C)CC2)cc1C (stereo not drawn),–,"inconclusive: 29.1 µM [activator, single point]",–
O=C(CN1CCCC1)Nc1c(Cl)cccc1Cl,inconclusive: 5.45%,–,–
Cc1cc(=O)n2nc(N3CCCC(C(=O)NCCCN4CCc5ccccc5C4)C3)sc2n1 (stereo not drawn),inconclusive: 23%,–,–
Cc1ccccc1-c1nnc(SCc2ccccc2)o1,–,"inconclusive: 2.06 µM [activator, partial curve]",–
C=CCn1nnnc1SCC(=O)Nc1cccc(C(F)(F)F)c1,inconclusive: 76.6%,–,–
C/C(=N/NC(=O)c1ccc(Br)o1)c1cccc(NC(=O)c2ccc(C)o2)c1,inconclusive: 7.24%,–,–
O=C(Nc1ccccc1N1CCCC1)C1CCN(S(=O)(=O)c2ccccc2)CC1,inconclusive: 6.29%,–,–
COc1ccc(-c2nc3ccc(N4CCCC4)cc3c(=O)[nH]2)cc1OC,inconclusive: 39.8%,–,–
CCOc1ccc(NC(=O)CSc2nnc(C3CC3)n2C2CC2)cc1,inconclusive: -9.68%,–,–
CC[C@@]12C(=O)N(c3cccc(Br)c3)C(=O)N1[C@H](c1ccc(F)cc1)[C@@H]1C(=O)N(C3CCCCC3)C(=O)[C@@H]12,inconclusive: 9.79%,–,–
O=C(N[C@H]1CCC(=O)N(CCSc2ccc(Br)cc2)CC1)OCc1ccccc1,inconclusive: 11.8%,–,–
Cc1cc(NC(=O)c2cccnc2)ccc1NC(=O)c1ccco1,–,"inconclusive: 0.517 µM [activator, partial curve]",–

SMILES,"lipid storage change, negative = inhibition",Potency,outcome
CCOC(=O)C1=C(C)NC2=C(C(=O)c3ccccc32)C1c1cccc2ccccc12 (stereo not drawn),–,active: 16.4 µM,–
COc1cc(NC(=O)c2ccccc2)ccc1NC(=O)Cc1ccccc1,–,"inconclusive: 0.731 µM [activator, single point]",–
CCCOc1ccc(C=Nc2ccc(OC)c(S(=O)(=O)N3CCOCC3)c2)c(O)c1,inconclusive: -47.1%,–,–
CCCSc1nnc(N2C(=O)CC(c3ccsc3)C3=C2CCCC3=O)s1 (stereo not drawn),inconclusive: 5.48%,–,–
CCN1C(=O)/C(=C/c2ccc(OC)c(OC)c2)N=C1SCC(=O)NCc1ccco1,inconclusive: 30.1%,–,–
Cc1ccn(CC(=O)O)c(=O)c1,–,"inconclusive: 16.4 µM [falling, single point]",–
O=C(Nc1ccc(Cl)c(S(=O)(=O)N2CCCCC2)c1)c1ccco1,–,active: 0.291 µM,–
c1ccc(COc2ccc(OCCCN3CCCCC3)cc2)cc1,–,"inconclusive: 5.8 µM [falling, full curve]",–
Cn1c(-c2ccccc2)cnc1NCc1ccc(F)cc1,inconclusive: -36.4%,–,–
Cc1ccc(S(=O)(=O)N2CCOCC2)cc1NS(=O)(=O)c1ccc(F)c(F)c1,–,"inconclusive: 0.0461 µM [activator, full curve, poor fit]",–
CCN(CC)S(=O)(=O)c1ccc(N2CCN(S(=O)(=O)c3ccccc3)CC2)nc1,inconclusive: 1.21%,–,–
Cn1c(SCc2ccon2)nc2ccccc2c1=O,–,"inconclusive: 6.51 µM [activator, single point]",–
COc1cc(/C=C2\C(=N)N3N=C(S(C)(=O)=O)SC3=NC2=O)ccc1OS(=O)(=O)c1ccccc1,–,–,inactive [at 46.1 µM]
CCOc1ccccc1NC(=O)c1ccc(Cl)c(NC(=O)CC(c2ccccc2)c2ccccc2)c1,–,"inconclusive: 32.6 µM [falling, single point]",–
CC1CCN(C(=O)CSc2nc3c(c(=O)n2C)SC(C)C3)CC1 (stereo not drawn),inconclusive: 2.47%,–,–
COc1ccc(NC(=O)CN2CCN(c3c(C)cc(C)cc3C)CC2)cc1,inconclusive: -15.7%,–,–
COc1ccc(NC(=O)c2ccc3c(c2)OCO3)cc1,–,"inconclusive: 7.31 µM [activator, partial curve]",–
O=C(NCCCn1ccnc1)C(=O)NCC(c1cccnc1)N1CCN(c2ccc(F)cc2)CC1 (stereo not drawn),inconclusive: -4.23%,–,–
Cc1cc(Cl)ccc1OCc1n[nH]c(=S)n1C1CCCCC1,inconclusive: 24.3%,–,–
CCn1c(SCC(=O)N2c3ccccc3CCc3ccccc32)nnc1-c1ccc(OC)cc1,–,"inconclusive: 23.1 µM [falling, single point]",–
COc1ccc(C(=O)/C=C/c2ccc(OC3CSC3)cc2)cc1OC,inconclusive: 16.3%,–,–
COc1ccccc1C(=O)NC(=O)COC(=O)CCOc1ccc(C)cc1,inconclusive: 12.8%,–,–
Cc1sc2nc(C3CC3)nc(SCC(=O)N3CCCc4ccccc43)c2c1C,–,"inconclusive: 29.1 µM [activator, single point]",–
Cc1cccc2cc(C#N)c(SCC(=O)N3CC(=O)Nc4ccccc43)nc12,inconclusive: -37.5%,–,–
O=C(CN1C2=NCCCN2c2ccccc21)c1cccc(Br)c1,inconclusive: 14.7%,–,–
O=C(C1CCN(S(=O)(=O)c2cccnc2)CC1)N1CCN(c2cccc(Cl)c2)CC1,–,"inconclusive: 0.411 µM [activator, single point]",–

# Random excerpt: 3 compounds from above.
SMILES,"lipid storage change, negative = inhibition",Potency,outcome
CC1CCN(C(=O)CSc2nc3c(c(=O)n2C)SC(C)C3)CC1 (stereo not drawn),inconclusive: 2.47%,–,–
CCOc1ccccc1NC(=O)c1ccc(Cl)c(NC(=O)CC(c2ccccc2)c2ccccc2)c1,–,"inconclusive: 32.6 µM [falling, single point]",–
Cc1ccn(CC(=O)O)c(=O)c1,–,"inconclusive: 16.4 µM [falling, single point]",–
